No constants are given. Whether binding was seen depends on the method and setting.
How the values were obtained:
Assay in all cases: two-hybrid; matrix-based GAL4 yeast two-hybrid by mating (baits in PJ69-4alpha, preys in PJ69-4a); selection on SD-Leu-Trp-Ade or SD-Leu-Trp-His with 5 and 10 mM 3-amino-1,2,4-triazole; scored after 5 days at 30 °C; BD baits of TCP1, 2, 4, 10, 12, 18, 20 and 24 excluded for auto-activation; positive only if reproducible with at least two selection markers
[1] = molecular target: TCP9 (Arabidopsis thaliana) (UniProt O64647)
[2] = molecular target: T1, TCP19 (Arabidopsis thaliana) (UniProt Q9LT89)
T1 sequence: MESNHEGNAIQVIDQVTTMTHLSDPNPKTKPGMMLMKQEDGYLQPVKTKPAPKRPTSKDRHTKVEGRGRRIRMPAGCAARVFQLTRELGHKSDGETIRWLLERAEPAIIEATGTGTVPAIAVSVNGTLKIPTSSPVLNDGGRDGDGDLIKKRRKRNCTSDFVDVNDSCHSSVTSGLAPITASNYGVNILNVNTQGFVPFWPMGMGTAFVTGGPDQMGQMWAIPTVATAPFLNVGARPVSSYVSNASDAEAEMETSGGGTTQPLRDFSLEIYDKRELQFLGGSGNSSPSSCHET

Chains of the proteins cited; added tags and fusions are not shown.
UniProt O64647: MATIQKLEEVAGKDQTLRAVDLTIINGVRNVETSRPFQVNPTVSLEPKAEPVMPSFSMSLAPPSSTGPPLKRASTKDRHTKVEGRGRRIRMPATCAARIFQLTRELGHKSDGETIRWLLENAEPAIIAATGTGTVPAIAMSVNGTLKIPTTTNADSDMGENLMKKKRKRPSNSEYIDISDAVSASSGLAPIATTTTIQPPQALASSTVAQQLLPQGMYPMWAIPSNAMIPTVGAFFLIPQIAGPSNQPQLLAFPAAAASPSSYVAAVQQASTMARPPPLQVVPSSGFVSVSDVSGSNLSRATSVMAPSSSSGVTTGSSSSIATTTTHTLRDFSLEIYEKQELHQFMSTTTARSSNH
UniProt Q9SJK7: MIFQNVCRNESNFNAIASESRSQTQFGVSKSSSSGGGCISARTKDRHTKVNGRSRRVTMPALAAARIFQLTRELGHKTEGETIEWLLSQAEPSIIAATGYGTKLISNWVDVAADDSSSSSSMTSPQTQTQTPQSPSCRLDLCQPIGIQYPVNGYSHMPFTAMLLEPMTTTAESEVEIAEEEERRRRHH

[3] = molecular target: T2, TCP13 (Arabidopsis thaliana) (UniProt Q9S7W5)
T2 sequence: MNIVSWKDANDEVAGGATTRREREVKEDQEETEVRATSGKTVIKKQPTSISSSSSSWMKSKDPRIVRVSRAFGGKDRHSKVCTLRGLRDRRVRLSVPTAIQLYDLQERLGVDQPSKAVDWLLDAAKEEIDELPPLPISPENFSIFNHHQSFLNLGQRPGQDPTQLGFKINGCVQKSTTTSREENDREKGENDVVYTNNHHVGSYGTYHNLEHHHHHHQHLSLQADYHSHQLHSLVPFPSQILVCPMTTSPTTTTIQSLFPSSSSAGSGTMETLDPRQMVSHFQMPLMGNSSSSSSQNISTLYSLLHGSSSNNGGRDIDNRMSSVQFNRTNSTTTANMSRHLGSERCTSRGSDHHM

[4] = molecular target: TCP11 (Arabidopsis thaliana) (UniProt Q9SJK7)
[5] = molecular target: T3, TCP3 (Arabidopsis thaliana) (UniProt Q9MAH8)
T3 sequence: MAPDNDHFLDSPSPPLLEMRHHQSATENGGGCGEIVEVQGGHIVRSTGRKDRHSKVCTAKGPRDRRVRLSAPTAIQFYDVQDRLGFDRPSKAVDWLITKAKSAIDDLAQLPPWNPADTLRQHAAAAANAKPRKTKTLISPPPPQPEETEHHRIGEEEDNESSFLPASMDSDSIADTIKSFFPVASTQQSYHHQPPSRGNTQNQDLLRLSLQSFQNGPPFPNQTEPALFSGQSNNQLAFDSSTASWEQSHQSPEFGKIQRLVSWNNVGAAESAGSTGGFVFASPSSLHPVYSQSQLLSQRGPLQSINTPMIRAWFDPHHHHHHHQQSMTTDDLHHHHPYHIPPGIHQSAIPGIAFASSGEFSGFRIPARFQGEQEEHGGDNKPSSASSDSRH

[6] = molecular target: T4, TCP17 (Arabidopsis thaliana) (UniProt Q9LEZ9)
T4 sequence: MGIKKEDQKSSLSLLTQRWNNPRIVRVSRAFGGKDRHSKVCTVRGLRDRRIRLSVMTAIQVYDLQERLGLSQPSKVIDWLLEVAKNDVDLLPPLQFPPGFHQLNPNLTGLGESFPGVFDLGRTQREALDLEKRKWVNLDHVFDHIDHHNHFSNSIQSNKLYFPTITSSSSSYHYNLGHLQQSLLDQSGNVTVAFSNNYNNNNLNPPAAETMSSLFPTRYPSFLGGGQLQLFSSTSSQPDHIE

[7] = molecular target: T5, TCP16 (Arabidopsis thaliana) (UniProt Q9M1U4)
T5 sequence: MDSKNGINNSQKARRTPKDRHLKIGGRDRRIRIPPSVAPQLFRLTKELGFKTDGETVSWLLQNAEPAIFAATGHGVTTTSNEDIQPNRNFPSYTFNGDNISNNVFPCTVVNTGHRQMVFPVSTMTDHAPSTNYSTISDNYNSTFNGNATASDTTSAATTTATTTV

Measured: binding

TCP9 (from UniProt O64647 1-356)
no binding: [1]

B1: TCP12 (protein, UniProt A0AQW4 1-356)
chain: MFPSLDTNGYDLFDPFIPHQTTMFPSFITHIQSPNSHHHYSSPSFPFSSDFLESFDESFLINQFLLQQQDVAANVVESPWKFCKKLELKKKNEKCVDGSTSQEVQWRRTVKKRDRHSKICTAQGPRDRRMRLSLQIARKFFDLQDMLGFDKASKTIEWLFSKSKTSIKQLKERVAASEGGGKDEHLQVDEKEKDETLKLRVSKRRTKTMESSFKTKESRERARKRARERTMAKMKMRLFETSETISDPHQETREIKITNGVQLLEKENKEQEWSNTNDVHMVEYQMDSVSIIEKFLGLTSDSSSSSIFGDSEECYTSLSSVRGMSTPREHNTTSIATVDEEKSPISSFSLYDYLCY
no binding: [2] | [3] | [4] | [5] | [6] | [7]

B2: TCP18 (protein, UniProt A1YKT1 1-433)
chain: MNNNIFSTTTTINDDYMLFPYNDHYSSQPLLPFSPSSSINDILIHSTSNTSNNHLDHHHQFQQPSPFSHFEFAPDCALLTSFHPENNGHDDNQTIPNDNHHPSLHFPLNNTIVEQPTEPSETINLIEDSQRISTSQDPKMKKAKKPSRTDRHSKIKTAKGTRDRRMRLSLDVAKELFGLQDMLGFDKASKTVEWLLTQAKPEIIKIATTLSHHGCFSSGDESHIRPVLGSMDTSSDLCELASMWTVDDRGSNTNTTETRGNKVDGRSMRGKRKRPEPRTPILKKLSKEERAKARERAKGRTMEKMMMKMKGRSQLVKVVEEDAHDHGEIIKNNNRSQVNRSSFEMTHCEDKIEELCKNDRFAVCNEFIMNKKDHISNESYDLVNYKPNSSFPVINHHRSQGAANSIEQHQFTDLHYSFGAKPRDLMHNYQNMY
no binding: [2] | [3] | [4] | [5] | [6] | [7]

B3: TCP1 (protein, UniProt Q9FYG7 1-359)
chain: MSSSTNDYNDGNNNGVYPLSLYLSSLSGHQDIIHNPYNHQLKASPGHMVSAVPESLIDYMAFKSNNVVNQQGFEFPEVSKEIKKVVKKDRHSKIQTAQGIRDRRVRLSIGIARQFFDLQDMLGFDKASKTLDWLLKKSRKAIKEVVQAKNLNNDDEDFGNIGGDVEQEEEKEEDDNGDKSFVYGLSPGYGEEEVVCEATKAGIRKKKSELRNISSKGLGAKARGKAKERTKEMMAYDNPETASDITQSEIMDPFKRSIVFNEGEDMTHLFYKEPIEEFDNQESILTNMTLPTKMGQSYNQNNGILMLVDQSSSSNYNTFLPQNLDYSYDQNPFHDQTLYVVTDKNFPKGKVWIQDSFVN
no binding: [2] | [3] | [4] | [5] | [6] | [7]

From article PMC3871820
